Test results as given in patent US7238857.
No signal at the amounts used counts as a negative.

By UniProt entry, the sequences of proteins in these tests, tags left out. Where a name states a change or a piece, a line headed by the entry shows the natural chain unless it says otherwise.
UniProt Q40477: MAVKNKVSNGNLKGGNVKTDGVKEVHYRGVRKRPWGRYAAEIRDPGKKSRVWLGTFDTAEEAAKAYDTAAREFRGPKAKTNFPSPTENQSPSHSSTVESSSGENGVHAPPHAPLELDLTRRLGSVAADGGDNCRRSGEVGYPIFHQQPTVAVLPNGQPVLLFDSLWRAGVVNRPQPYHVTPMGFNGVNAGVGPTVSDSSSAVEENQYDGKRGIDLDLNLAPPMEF
UniProt Q40476: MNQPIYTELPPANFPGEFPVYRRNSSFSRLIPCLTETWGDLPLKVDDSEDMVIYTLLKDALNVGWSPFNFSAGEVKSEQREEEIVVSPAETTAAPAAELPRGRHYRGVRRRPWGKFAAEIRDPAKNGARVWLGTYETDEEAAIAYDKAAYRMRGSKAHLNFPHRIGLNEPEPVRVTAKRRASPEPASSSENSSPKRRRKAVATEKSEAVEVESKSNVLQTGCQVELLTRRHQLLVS
UniProt Q40478: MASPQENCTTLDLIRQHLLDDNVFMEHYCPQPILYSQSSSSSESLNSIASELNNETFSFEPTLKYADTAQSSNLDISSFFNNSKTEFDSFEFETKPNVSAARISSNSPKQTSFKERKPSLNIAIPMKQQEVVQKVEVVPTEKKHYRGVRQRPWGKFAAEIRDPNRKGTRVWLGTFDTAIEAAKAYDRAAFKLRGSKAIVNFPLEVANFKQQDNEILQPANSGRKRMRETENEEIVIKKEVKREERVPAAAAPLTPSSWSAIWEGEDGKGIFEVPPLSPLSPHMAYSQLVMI
UniProt Q40479: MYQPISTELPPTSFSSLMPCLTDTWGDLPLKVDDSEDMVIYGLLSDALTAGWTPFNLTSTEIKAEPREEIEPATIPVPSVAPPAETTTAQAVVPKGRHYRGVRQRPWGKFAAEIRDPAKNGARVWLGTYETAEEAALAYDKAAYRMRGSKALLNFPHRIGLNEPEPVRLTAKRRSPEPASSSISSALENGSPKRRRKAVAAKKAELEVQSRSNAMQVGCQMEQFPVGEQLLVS

How the values were obtained:
Experiment in all cases: activity assay
ERF3 (Nicotiana tabacum) = ERF3 (Nicotiana tabacum) (UniProt Q40477); details: no effect on in vitro transcription from pmERE; purified recombinant protein; protein details: His tag (pET15b, Novagen); variant of ERE (2x GCC box)
ERF1 (Nicotiana tabacum) = ERF1 (Nicotiana tabacum) (UniProt Q40476); details: no effect on in vitro transcription from pmERE; purified recombinant protein; protein details: His tag (pET15b, Novagen); variant of ERE (2x GCC box)
ERF4 (Nicotiana tabacum) = ERF4 (Nicotiana tabacum) (UniProt Q40478); details: no effect on in vitro transcription from pmERE; purified recombinant protein; protein details: His tag (pET15b, Novagen); variant of ERE (2x GCC box)
ERF2 (Nicotiana tabacum) = ERF2 (Nicotiana tabacum) (UniProt Q40479); details: no amplification of in vitro transcription from pmERE; purified recombinant protein; protein details: His tag (pET15b, Novagen); variant of ERE (2x GCC box)

Measured: activity on this sequence

GATCTCATAAGATCCTCCACTAAAATAAGACCGATCAAATAAGATCCTCCATG / GATCCATGGAGGATCTTATTTGATCGGTCTTATTTTAGTGGAGGATCTTATGA [mERE (mutant GCC box)]
not active: ERF3 (Nicotiana tabacum) | ERF1 (Nicotiana tabacum) | ERF4 (Nicotiana tabacum) | ERF2 (Nicotiana tabacum)
